Results deposited as PubChem BioAssay AID1259254 (NCATS, 2017).

Purpose: 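Finding genes that stop cells copying their DNA twice in one cycle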 (primary screen)
Cell system: human HCT116 colorectal cancer cells
Reagents: single siRNA against human genes
Duration: 3 days
Detection: 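Imaged Hoechst DNA stain sorts each cell into a cycle phase by DNA amount; per plate, G2 fraction set to 0% for non-targeting and 100% for GMNN siRNA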
Scale: G2 robust z-score and G2 cells, % of GMNN control: higher = more G2 cells, more excess DNA replication
Hit rule: 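Active siRNAs have a G2 robust z of 5 or more median absolute deviations over the median, which in these data means about 38% or higher of GMNN control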
The whole screen tested about 59,000 reagents; shown is an unselected part. About 1,550 of them (2.6%) were called active. 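G2 share is only a proxy for re-replication; each gene was hit by three separate siRNAs, and active genes were retested.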 The numbers tell different reagents against one gene apart. Not all columns of the deposit are shown. The record does not give: the amount of reagent.

Against SPIB #1, the entry reads G2 robust z-score -1.2; G2 cells, % of GMNN control -5.45; inactive.
After knock-down of SPIB #2, the screen gave G2 robust z-score -0.717; G2 cells, % of GMNN control -2.08; inactive.
For SPIB #3 the deposit lists G2 robust z-score 4.04; G2 cells, % of GMNN control 31.4; inactive.
After knock-down of ARHGAP25 #1, the screen gave G2 robust z-score -0.0685; G2 cells, % of GMNN control 2.49; inactive.
Silencing of ARHGAP25 #2 came out at: G2 robust z-score -0.823; G2 cells, % of GMNN control -2.82; inactive.
For ARHGAP25 #3 the deposit lists G2 robust z-score -0.0543; G2 cells, % of GMNN control 2.59; inactive.
After knock-down of RAVER1 #1, the screen gave G2 robust z-score -0.718; G2 cells, % of GMNN control -2.09; inactive.
With knock-down of RAVER1 #2, the screen gave G2 robust z-score 1.72; G2 cells, % of GMNN control 15.1; inactive.
RAVER1 #3 gave G2 robust z-score -0.178; G2 cells, % of GMNN control 1.71; inactive.
MYL12BP2 #1 showed G2 robust z-score 3.89; G2 cells, % of GMNN control 30.3; inactive.
MYL12BP2 #2 scored G2 robust z-score -0.932; G2 cells, % of GMNN control -3.59; inactive.
MYL12BP2 #3 showed G2 robust z-score 0.213; G2 cells, % of GMNN control 4.46; inactive.
Silencing of DTL #1 came out at: G2 robust z-score 3.52; G2 cells, % of GMNN control 27.8; inactive.
For DTL #2, the values are G2 robust z-score 6.61; G2 cells, % of GMNN control 49.5; active.
Silencing of DTL #3 gave: G2 robust z-score 1.2; G2 cells, % of GMNN control 11.4; inactive.
For SNX2 #1, the entry reads G2 robust z-score -0.688; G2 cells, % of GMNN control -1.87; inactive.
For SNX2 #2, the values are G2 robust z-score 1.18; G2 cells, % of GMNN control 11.2; inactive.
With knock-down of SNX2 #3, the record shows G2 robust z-score 0.744; G2 cells, % of GMNN control 8.2; inactive.
SLC6A2 #1 gave G2 robust z-score 5.63; G2 cells, % of GMNN control 42.6; active.
After knock-down of SLC6A2 #2, the screen gave G2 robust z-score 2.28; G2 cells, % of GMNN control 19; inactive.
SLC6A2 #3 gave G2 robust z-score -0.801; G2 cells, % of GMNN control -2.67; inactive.
DHRS12 #1 gave G2 robust z-score -0.612; G2 cells, % of GMNN control -1.34; inactive.
Against DHRS12 #2, the entry reads G2 robust z-score -0.192; G2 cells, % of GMNN control 1.62; inactive.
With knock-down of DHRS12 #3 the results were G2 robust z-score -0.702; G2 cells, % of GMNN control -1.97; inactive.

Laid out differently: entries from further up.
Target gene,siRNA no.,G2 robust z-score,"G2 cells, % of GMNN control",Call
DTL,3,1.2,11.4,inactive
SNX2,1,-0.688,-1.87,inactive
